These are yes or no findings as the source states them, for the method shown. In cells and extracts the contact can be indirect. Some results given as binding are weak or reduced against the parent protein; the word gives no strength.
How the values were obtained:
[1] = target: heterogeneous nuclear ribonucleoprotein (hnRNP) K, endogenous (human (endogenous in A375 and HPDE)) (UniProt P61978); assay: co-IP; A375 cells treated with staurosporine for the indicated time, soluble and pellet fractions; 500 ug lysate immunoprecipitated with IgG or hnRNP K antibody, immunoblot with eIF3f and hnRNP K antibodies
[2] = target: eukaryotic initiation factor 3 subunit f (eIF3f), endogenous (human (endogenous in A375 and HPDE)) (UniProt O00303); assay: co-IP; HPDE cells treated with DMSO or etoposide (10 uM) for 24 hours; lysates immunoprecipitated with IgG or eIF3f antibody, immunoblot with eIF3f and hnRNP K antibodies
[3] = target: GST-eIF3f, full length (recombinant) (human) (UniProt O00303); assay: pull-down; GST pull-down: 35S-labeled in vitro transcribed and translated hnRNP K incubated with GST, full length GST-eIF3f or 4 deletion mutants; bound hnRNP K separated by SDS-PAGE, autoradiography; only the target purified

## eukaryotic initiation factor 3 subunit f (eIF3f), endogenous (from UniProt O00303 1-357)
[1]
  binding: binds

## heterogeneous nuclear ribonucleoprotein (hnRNP) K, endogenous (from UniProt P61978 1-463)
[2]
  binding: binds

## hnRNP K, in vitro transcribed and translated, 35S-labeled (from UniProt P61978 1-463)
[3]
  binding: binds

From article PMC3311619
